# Laboratory results as given in PubChem BioAssay AID1671190 (National Center for Advancing Translational Sciences (NCATS), 2021).
# Protein sequences, listed by entry. Tags and fused reporters are not part of them. Lines headed by an entry give the natural chain unless they say otherwise; changes in a name come on top.
# UniProt P18054: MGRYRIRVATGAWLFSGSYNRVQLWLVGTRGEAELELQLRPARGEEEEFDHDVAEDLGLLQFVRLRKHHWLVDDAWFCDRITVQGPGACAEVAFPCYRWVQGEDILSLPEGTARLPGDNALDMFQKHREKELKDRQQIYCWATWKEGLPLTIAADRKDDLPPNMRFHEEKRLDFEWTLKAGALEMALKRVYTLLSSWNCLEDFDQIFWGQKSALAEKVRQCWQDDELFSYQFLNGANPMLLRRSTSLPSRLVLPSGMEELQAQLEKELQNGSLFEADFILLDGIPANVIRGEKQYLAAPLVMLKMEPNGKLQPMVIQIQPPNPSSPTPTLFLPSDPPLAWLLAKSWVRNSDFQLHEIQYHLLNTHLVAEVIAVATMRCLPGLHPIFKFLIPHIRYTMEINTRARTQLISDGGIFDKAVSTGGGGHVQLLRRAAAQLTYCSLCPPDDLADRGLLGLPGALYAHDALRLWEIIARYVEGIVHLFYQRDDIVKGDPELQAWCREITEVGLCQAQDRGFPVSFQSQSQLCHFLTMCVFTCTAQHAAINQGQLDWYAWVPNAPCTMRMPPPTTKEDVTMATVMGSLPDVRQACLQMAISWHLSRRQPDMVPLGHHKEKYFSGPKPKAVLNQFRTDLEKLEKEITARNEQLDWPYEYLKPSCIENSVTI
# Out of some 580,000 compounds screened, about 6,100 (1.1%) were called active. The shares of active, inactive and inconclusive entries below differ from those in the screen. Calls come from the whole dose curve; as a rule, active = well fitted inhibition curve with a large enough effect; inconclusive = small, poorly fitted or top-dose-only effect, or another doubt; inactive = no such curve, though single readings can be large or run the other way. Where the call is inconclusive, the potency comes from a doubtful curve fit.
# Target: Polyunsaturated fatty acid lipoxygenase ALOX12 (Homo sapiens) (UniProt P18054)
# Assay: Primary qHTS assay for inhibitors of human arachidonate 12S-lipoxygenase (ALOX12): Round 2
# Details: purified 12hLO, xylenol orange hydroperoxide absorbance; activity change, negative = inhibition: at 108 µM (top of the series) unless noted
# Method in brief: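 Purified human 12hLO at 150 nM in 25 mM Hepes, 0.01% Triton X-100, pH 7.0, preincubated 15 min at room temperature with compound. Reaction started with 40 uM arachidonic acid, 30 min at room temperature. Hydroperoxide measured by Fe-xylenol orange, 573/405 nm absorbance ratio.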
# % is set by controls: 0 for no effect and ±100 for the full control effect; potency is the fitted concentration of half-maximal effect.
SMILES,Potency,"activity change, negative = inhibition"
O=C(c1ccc(C(F)(F)F)cc1)N1CCC(=O)N([C@H](COCc2ccc(Cl)cc2)Cc2ccccc2)CC1,"inconclusive: 100 µM [inhibitor, partial curve, poor fit]",
CSc1ncccc1C(=O)OCC(=O)NCCc1ccccc1,"inconclusive: 100 µM [inhibitor, single point]",
O=C(CSc1nnc(-c2ccncc2)n1Cc1ccco1)Nc1ccccc1Cl,,inactive: -15.5%
CC1Oc2ccccc2C=C1C1/C(=C(/O)c2ccccc2)C(=O)C(=O)N1CCCN(C)C (stereo not drawn),"inconclusive: 25.1 µM [inhibitor, partial curve, poor fit]",
COc1ccc(-c2noc(C3CCCN(C(=O)c4ccccc4C)C3)n2)cc1 (stereo not drawn),,inactive: 52%
CCCN(CCC)S(=O)(=O)c1nc(C)c(Cl)c(C)c1C#N,"inconclusive: 112 µM [inhibitor, single point]",
Cc1cccc(/C=C(\C#N)C(=O)Nc2ccccn2)c1,"inconclusive: 3.98 µM [inhibitor, full curve, poor fit]",
O=C(NC(=S)NCc1ccccc1)c1ccc(Br)cc1,,inactive: -104%
Cc1nn(-c2nc(-c3ccc(F)cc3)cc(C(F)(F)F)n2)c(C)c1Br,"inconclusive: 50.1 µM [inhibitor, partial curve, poor fit]",
CC(C)Cn1c(-c2csc3ccccc23)n[nH]c1=S,"inconclusive: 25.1 µM [inhibitor, partial curve]",
COc1cccc(C(=O)Nc2ccccc2C(=O)OCc2cc(=O)n3c(C)csc3n2)c1,"inconclusive: 126 µM [inhibitor, partial curve, poor fit]",
CCCC(=O)N1CCN(Cc2nc3cc([N+](=O)[O-])ccc3n2C)CC1,,inactive: 7.78%
CC(C)(C)S(=O)N1Cc2cc(=O)n(Cc3ccccc3)c(CCO)c2[C@@H]1CCO (stereo partly drawn),"inconclusive: 2.82 µM [inhibitor, full curve]",
CCC(=O)Oc1ccc(C/C(=N\O)c2ccc(O)cc2O)o1,"inconclusive: 44.7 µM [inhibitor, partial curve, poor fit]",
CCN1CCN(C(=O)C(C)Sc2cc(C)c3cccc(C)c3n2)CC1 (stereo not drawn),"inconclusive: 100 µM [inhibitor, partial curve, poor fit]",
Cc1nnc2sc(SCC(=O)N3CCC(C)CC3)nn2c1=O,"inconclusive: 28.2 µM [inhibitor, partial curve, poor fit]",
Cc1cc(C)c(NS(=O)(=O)c2c(C)cc(N3C(=O)CCS3(=O)=O)cc2C)c(Cl)c1,"inconclusive: 39.8 µM [inhibitor, partial curve, poor fit]",
CCOC(=O)N1CCN(C(=O)C[C@@H]2C[C@@]3(C(=O)OCC)CCC=C3N(CCC3=CCCCC3)C2=O)CC1,"inconclusive: 126 µM [inhibitor, single point]",
COc1ccccc1C(=O)NC(=O)CSc1nnc(N)s1,"inconclusive: 126 µM [inhibitor, single point]",
Cc1nn(-c2ccc(F)cc2)c(-n2cccc2)c1C(=O)NCCCN1CCN(c2ccccc2F)CC1,"inconclusive: 14.1 µM [inhibitor, full curve, poor fit]",
Nc1ccc2c(c1)OCCOCCOCCOCCOCCO2,"inconclusive: 39.8 µM [inhibitor, partial curve, poor fit]",

# Taken from above.
# In Potency, O=C(c1ccc(C(F)(F)F)cc1)N1CCC(=O)N([C@H](COCc2ccc(Cl)cc2)Cc2ccccc2)CC1 is entered as inconclusive: 100 µM [inhibitor, partial curve, poor fit]
# In Potency, COc1ccccc1C(=O)NC(=O)CSc1nnc(N)s1 is entered as inconclusive: 126 µM [inhibitor, single point]

# Reformatted with tabs: 2 of the compounds above
SMILES	Potency	activity change, negative = inhibition
COc1cccc(C(=O)Nc2ccccc2C(=O)OCc2cc(=O)n3c(C)csc3n2)c1	inconclusive: 126 µM [inhibitor, partial curve, poor fit]	
Nc1ccc2c(c1)OCCOCCOCCOCCOCCO2	inconclusive: 39.8 µM [inhibitor, partial curve, poor fit]	

# (further entries)

SMILES,Potency,"activity change, negative = inhibition"
Cc1occc1C(=O)N(C)CC1CCCN(CCc2ccc(Cl)cc2)C1 (stereo not drawn),active: 44.7 µM,
COc1ccc(CN2CCN(Cc3ccco3)CC2)c(OC)c1,"inconclusive: 0.398 µM [inhibitor, full curve, poor fit]",
COc1ccc(/C=C2\SC(=S)N(CCC(=O)NC3C=CS(=O)(=O)C3)C2=O)cc1 (stereo not drawn),,inactive: 3.76%
COC(=O)c1ccc(NCc2c(O)ccc(O)c2Br)cc1Cl,active: 0.891 µM,
O=C(c1ccc(Br)s1)N(Cc1ccc(Br)cc1)C1CC1,"inconclusive: 7.08 µM [inhibitor, full curve, poor fit]",
Cc1ccc(S(=O)(=O)n2ccc3cccnc32)cc1,"inconclusive: 31.6 µM [inhibitor, single point]",
O=C(Nc1ccc(N2CCC(c3ccccc3)C2)c(C(=O)O)c1)c1ccc(Cl)cc1 (stereo not drawn),"inconclusive: 39.8 µM [inhibitor, partial curve, poor fit]",
CC(C)NC(=O)NC(=O)COC(=O)c1ccc2ccccc2n1,"inconclusive: 35.5 µM [inhibitor, partial curve, poor fit]",
CC1(C(=O)NC2COC2)CN(Cc2ccccc2)Cc2ccc(Nc3ccccc3)nc21 (stereo not drawn),,inactive: -8.59% [at 176 µM]
OC[C@@H]1CN(CC2CCCCC2)C[C@H]1c1nc(C2CC2)no1,"inconclusive: 20 µM [inhibitor, full curve]",
NNc1cccc(C=Cc2ccccc2)cc1=O,"inconclusive: 6.31 µM [inhibitor, partial curve, poor fit]",
CCOC(=O)C1=NNC(C(=O)c2ccc(OC)cc2)C1c1ccccc1 (stereo not drawn),"inconclusive: 35.5 µM [inhibitor, partial curve, poor fit]",
O=C(Nc1cccc(F)c1)Nc1cccc(Cl)c1,"inconclusive: 15.8 µM [inhibitor, partial curve, poor fit]",
N#Cc1cccc(C(=O)Nc2cccc(OC3CCCC3)c2)c1,"inconclusive: 44.7 µM [inhibitor, partial curve, poor fit]",
CC(C)Cn1nc(C(=O)NCc2ccc(F)cc2)c2ccccc2c1=O,"inconclusive: 100 µM [inhibitor, single point]",
COc1ccc(SCC(=O)Nc2ccc(C(=O)N(C)C)cc2)cc1,"inconclusive: 31.6 µM [inhibitor, partial curve, poor fit]",
CC(=O)c1ccc(NC(=O)CC2Nc3cccc4cccc(c34)NC2=O)cc1 (stereo not drawn),"inconclusive: 56.2 µM [inhibitor, partial curve, poor fit]",
C/C(=N\N1CCN(c2ccccc2)CC1)c1ccc(O)cc1,"inconclusive: 5.62 µM [inhibitor, full curve, poor fit]",
CC1CC1C(=O)NCCC(=O)Nc1ccc(C#N)cc1 (stereo not drawn),"inconclusive: 70.8 µM [inhibitor, single point]",
Cc1nc(Nc2nc(CSc3nc4ccccc4[nH]3)cc(=O)[nH]2)nc2ccccc12,inactive,
Cc1ccc2nc(Nc3nc(CSc4ncccn4)cc(=O)[nH]3)nc(C)c2c1,,inactive: 7.43%

SMILES,Potency,"activity change, negative = inhibition"
COc1ccc(C2c3ccsc3CCN2C(=O)NC(C)(C)C)cc1 (stereo not drawn),"inconclusive: 158 µM [inhibitor, single point]",
Cc1ccc(N2C(=O)[C@@H]3[C@H](C2=O)[C@H]2C=C(C(=O)c4ccccc4)C=CN2[C@@H]3C(=O)c2ccc(Cl)cc2)cc1,,inactive: -26.9%
COc1ccccc1COC(=O)C(NC(=O)c1ccc(C)cc1)C(C)C (stereo not drawn),"inconclusive: 44.7 µM [inhibitor, partial curve, poor fit]",
CC(C)N1C[C@H](O)C[C@H]1c1nc(-c2ccc3c(c2)OCO3)no1,"inconclusive: 15.8 µM [inhibitor, full curve]",
S=c1[nH]nc(Cn2c(-c3ccccn3)nc3ccccc32)n1-c1ccc2c(c1)OCCO2,"inconclusive: 35.5 µM [inhibitor, partial curve, poor fit]",
CSc1ccc(CCNC(=O)CCCn2nc(C)c3sc4ccccc4c3c2=O)cc1,,inactive: -8.37%
Cc1cccc(NC(=O)CN2C(=O)c3cccnc3Oc3ccc(Cl)cc32)c1C,"inconclusive: 8.91 µM [inhibitor, full curve, poor fit]",
CC(c1ccccc1)N1C(=O)/C(=C/c2ccncc2)SC1=S (stereo not drawn),"inconclusive: 126 µM [inhibitor, partial curve, poor fit]",
Cc1ccccc1C(=O)Nc1ccnn1C1CCN(Cc2cccnc2)CC1,,inactive: 0%
CCN(CC)C(=O)C1=C(C)N(Cc2ccc(OC)cc2)C(=O)C(CC(=O)NCCN2CCOCC2)C1 (stereo not drawn),active: 15.8 µM,
CC(=O)N1CCN(C(=O)Cn2ccc3cc(Cl)ccc32)CC1,,inactive: -10.5%
CCOc1ccc(NC(=O)c2ccc3c(c2)NC(=O)CS3)cc1OC,"inconclusive: 35.5 µM [inhibitor, partial curve]",
CCCCn1nc(C(=O)Nc2ccc(OC)c(OC)c2)c2ccccc2c1=O,"inconclusive: 39.8 µM [inhibitor, partial curve, poor fit]",
O=C(Nc1cc(Cl)ccc1Cl)C1CC(=O)N(c2ccc(Br)cc2)C1 (stereo not drawn),"inconclusive: 126 µM [inhibitor, single point]",
Cc1cc(=O)oc2cc(OC(=O)COc3ccc4ccccc4c3)ccc12,"inconclusive: 22.4 µM [inhibitor, full curve]",
CCCCCCCCN1C(=O)[C@H](CC(=O)N2CCN(C(=O)OCC)CC2)C[C@@]2(C(=O)OC)CC(C)(C)CC=C12,,inactive: -21.7%
CC(C)CC(=O)Nc1nc(=S)ss1,"inconclusive: 44.7 µM [inhibitor, partial curve, poor fit]",
CCN(CC)CCOc1nc(C)nc2c1oc1ccccc12,"inconclusive: 17.8 µM [inhibitor, full curve, poor fit]",
Oc1ccccc1N=N/C(=N/Nc1ccccc1O)c1ccccc1,"inconclusive: 35.5 µM [inhibitor, single point]",
C[N+]1(C)CC2([N+](=O)[O-])CC=C(Oc3ccccc3)C([N+](=O)[O-])(C2)C1 (stereo not drawn),"inconclusive: 4.47 µM [inhibitor, full curve, poor fit]",
COc1ccc(OC)c(CCNC(=O)Cn2nc(C)c3c(C)n(-c4ccc(C)cc4)nc3c2=O)c1,"inconclusive: 56.2 µM [inhibitor, partial curve, poor fit]",
